Experimental data taken from US20180201658A1 (MIT, published 2018).
Results are given in words; binding and its absence hold for the method and conditions named. Some binding calls cover weakened binding; strength is not graded here.

By UniProt entry, the sequences of proteins in these tests, tags left out. Residues count along the entry.
UniProt Q07820, residues 172-327: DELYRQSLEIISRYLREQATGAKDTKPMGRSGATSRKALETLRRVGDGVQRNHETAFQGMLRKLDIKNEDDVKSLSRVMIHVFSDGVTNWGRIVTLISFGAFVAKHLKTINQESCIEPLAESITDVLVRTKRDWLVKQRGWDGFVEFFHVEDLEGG

Target: human Mcl-1 (human) (UniProt Q07820)
Test: solution binding of N-terminal fluorescein peptide (FIG. 1)

| binding | Binder |
| --- | --- |
| binds | RPEIWLGQSLQRLGDEINAYYAR (N-terminal fluorescein) [B3 peptide with N-terminal fluorescein] |
| binds | RPEIWMGQGLRRLGDEINAYYAR (N-terminal fluorescein) [A12 peptide with N-terminal fluorescein] |
